Data published in article PMC7819943, “Rice protein-binding microarrays: a tool to detect cis-acting elements near promoter regions in rice”.
This is one part of the list.

Target: T1, OsSMF1 (Oryza sativa, UniProt Q6ZLB0 1-436)
T1 sequence: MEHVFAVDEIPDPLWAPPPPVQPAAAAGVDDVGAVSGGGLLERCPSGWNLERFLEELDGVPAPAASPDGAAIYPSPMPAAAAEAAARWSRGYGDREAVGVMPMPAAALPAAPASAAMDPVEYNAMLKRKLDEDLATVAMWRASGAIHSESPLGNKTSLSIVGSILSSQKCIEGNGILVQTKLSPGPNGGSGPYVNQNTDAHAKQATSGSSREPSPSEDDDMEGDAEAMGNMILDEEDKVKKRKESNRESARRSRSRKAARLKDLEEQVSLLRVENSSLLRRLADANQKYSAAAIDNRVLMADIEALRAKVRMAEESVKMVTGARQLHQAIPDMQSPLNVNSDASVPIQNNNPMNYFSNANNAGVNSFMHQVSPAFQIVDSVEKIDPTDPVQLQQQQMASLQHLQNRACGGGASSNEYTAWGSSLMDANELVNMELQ
Assay: protein-binding microarray (RPBM); PBS, 2% BSA, 51.3 ng/ul salmon testes DNA, 50 uM zinc acetate, 200 nM TF, 25 C, 1 h; high values mean tight binding
Conditions: protein: recombinant; tags: N-terminal polyhistidine and DsRed monomer fusion (pET32a); chain copies: 2; label: CyDye5-dUTP incorporated in the synthesized complementary strand; 3' TTTTT single-stranded linker to array surface; dsDNA, one strand shown
Method in brief: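 A custom Agilent array was converted to double-stranded form by primer extension with Cy5-dUTP and blocked with 2% BSA. Protein at 200 nM in PBS with 2% BSA, salmon testes DNA and 50 µM zinc acetate was applied for 1 h at 25 °C, followed by washing. The proteins were polyhistidine–DsRed N-terminal fusions of transcription factors, expressed in E. coli BL21-CodonPlus and Ni–NTA-purified. The binding signal is per-feature fluorescence intensity (arbitrary units) from an Axon 4000B scanner.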

Row | Sequence | binding signal
1 | ATTGTTATTGACCTAGCCACGCACGCGATATAATGTTTCTCGGAGTCACCTAGTGCAG | 5290 fluorescence intensity (a.u.)
2 | AATCCGCTCAGTTTGTACTACGTATTATTATTCATTCTTCCGGAGTCACCTAGTGCAG | 3500 fluorescence intensity (a.u.)
3 | CCTCGTTCCCTTTCGGCCACGTCACCATCTCCCCTTCCGACGGAGTCACCTAGTGCAG | 13100 fluorescence intensity (a.u.)
4 | AGAAAGTATCTAAACATCCTTGATACTAGGTACGTATCTCCGGAGTCACCTAGTGCAG | 34800 fluorescence intensity (a.u.)
5 | ATGTGCGGGGAGTTCGCAGGATGACGACAGATGTATTATGCGGAGTCACCTAGTGCAG | 4640 fluorescence intensity (a.u.)
6 | GCCCAGTCGCCTGGTACCTTGCGCCCTTGCCTGCTCTGCCCGGAGTCACCTAGTGCAG | 36700 fluorescence intensity (a.u.)
7 | CCGTGCTTAACTCATGTTAGAATGCAATGTGCTACATCCACGGAGTCACCTAGTGCAG | 3590 fluorescence intensity (a.u.)
8 | TCAAAGCTAGGCACCACGCGTCAACGCATCATCTCCTTCACGGAGTCACCTAGTGCAG | 4860 fluorescence intensity (a.u.)
9 | TGAATGCCACCTAGATGCCACGTAAGCTAAAACTGGACTCCGGAGTCACCTAGTGCAG | 13200 fluorescence intensity (a.u.)
10 | CAGGTAGTGTGCAGTGTAGGTCGTCTGAGTCGGTCAGTTTCGGAGTCACCTAGTGCAG | 4150 fluorescence intensity (a.u.)
11 | GGTAGCTCACCCATTGCCATTCTTTCAAGCTCCCCGTCCACGGAGTCACCTAGTGCAG | 3790 fluorescence intensity (a.u.)
12 | AAACGCTGACAAAACACTGGTCACCGGAAGGCGATAGGTGCGGAGTCACCTAGTGCAG | 4990 fluorescence intensity (a.u.)
13 | TGGTTGGCCGTTGGGCGTGTCATGTGGGCAGGCAGATCACCGGAGTCACCTAGTGCAG | 9270 fluorescence intensity (a.u.)
14 | ATTATGTAATGCCTGTTGATGTCAGACCACTCCAAATGCTCGGAGTCACCTAGTGCAG | 3480 fluorescence intensity (a.u.)
15 | ACAGCACCACCTTGTGCGACCCCACCACCTTGTCCAGCGTCGGAGTCACCTAGTGCAG | 4130 fluorescence intensity (a.u.)
16 | TCTTTGCTAGGATTGAGGACGGTGATGACGCAGAGTTTCGCGGAGTCACCTAGTGCAG | 8970 fluorescence intensity (a.u.)
17 | CGCTCCTCCCCACCTATGCCTTGTCGAGTTGTCATCTTGTCGGAGTCACCTAGTGCAG | 4700 fluorescence intensity (a.u.)
18 | TGGCAAACAGACGATGACGGTGCCACAGATGGATGGCGATCGGAGTCACCTAGTGCAG | 3160 fluorescence intensity (a.u.)
19 | GTGCACACAGCTGGCACGGTGCTATGGGGCGCCACGTAGGCGGAGTCACCTAGTGCAG | 21900 fluorescence intensity (a.u.)
20 | ATGGTCTTGGTTTTGGGCGGCACGGTGGCACCTTTGTGCCCGGAGTCACCTAGTGCAG | 3700 fluorescence intensity (a.u.)
21 | TCGTTTCTTTGCCAGCTGCGCATCCATTCAGCCGGTCGTACGGAGTCACCTAGTGCAG | 4100 fluorescence intensity (a.u.)
22 | GGTGTGTGAAGTGGTGTGTGTCCTCTTCCCAACCAGAAATCGGAGTCACCTAGTGCAG | 3460 fluorescence intensity (a.u.)
23 | GAACACTGGGAGTTACGTGCTGCTTGGTAACATATATGCTCGGAGTCACCTAGTGCAG | 22800 fluorescence intensity (a.u.)
24 | GCCGGATGCGGCGGCGGCGCCGCTCCTTCGGTGGCGTGGCCGGAGTCACCTAGTGCAG | 4280 fluorescence intensity (a.u.)
25 | GATAGTAATGTGACAACATTCTTCTTCTTCTTCTTCTTTACGGAGTCACCTAGTGCAG | 3550 fluorescence intensity (a.u.)
26 | CAATAGTCACAAAGCTGCAAGAACTCCACGTCTCGCATCACGGAGTCACCTAGTGCAG | 3760 fluorescence intensity (a.u.)
27 | GGCCGCGTAGGCGCCACATCAGCCAAAACCACCATCAAAACGGAGTCACCTAGTGCAG | 4590 fluorescence intensity (a.u.)
